Reference: publication PMC2946606

Protein sequences, listed by entry. Tags and fused reporters are not part of them. Lines headed by an entry give the natural chain unless they say otherwise; changes in a name come on top.
UniProt P10827: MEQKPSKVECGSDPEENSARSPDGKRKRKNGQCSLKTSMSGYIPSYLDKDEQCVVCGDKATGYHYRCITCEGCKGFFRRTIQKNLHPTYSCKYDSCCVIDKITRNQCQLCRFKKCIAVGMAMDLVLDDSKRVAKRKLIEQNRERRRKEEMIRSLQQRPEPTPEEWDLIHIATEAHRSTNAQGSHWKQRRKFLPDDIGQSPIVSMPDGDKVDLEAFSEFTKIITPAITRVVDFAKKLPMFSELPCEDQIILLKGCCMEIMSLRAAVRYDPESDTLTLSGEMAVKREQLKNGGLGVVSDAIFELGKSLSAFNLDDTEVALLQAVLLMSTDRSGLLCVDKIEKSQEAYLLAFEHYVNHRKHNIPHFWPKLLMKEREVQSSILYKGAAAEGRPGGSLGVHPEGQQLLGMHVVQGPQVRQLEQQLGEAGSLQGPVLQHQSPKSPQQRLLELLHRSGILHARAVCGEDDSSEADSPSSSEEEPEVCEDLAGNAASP
UniProt Q92616: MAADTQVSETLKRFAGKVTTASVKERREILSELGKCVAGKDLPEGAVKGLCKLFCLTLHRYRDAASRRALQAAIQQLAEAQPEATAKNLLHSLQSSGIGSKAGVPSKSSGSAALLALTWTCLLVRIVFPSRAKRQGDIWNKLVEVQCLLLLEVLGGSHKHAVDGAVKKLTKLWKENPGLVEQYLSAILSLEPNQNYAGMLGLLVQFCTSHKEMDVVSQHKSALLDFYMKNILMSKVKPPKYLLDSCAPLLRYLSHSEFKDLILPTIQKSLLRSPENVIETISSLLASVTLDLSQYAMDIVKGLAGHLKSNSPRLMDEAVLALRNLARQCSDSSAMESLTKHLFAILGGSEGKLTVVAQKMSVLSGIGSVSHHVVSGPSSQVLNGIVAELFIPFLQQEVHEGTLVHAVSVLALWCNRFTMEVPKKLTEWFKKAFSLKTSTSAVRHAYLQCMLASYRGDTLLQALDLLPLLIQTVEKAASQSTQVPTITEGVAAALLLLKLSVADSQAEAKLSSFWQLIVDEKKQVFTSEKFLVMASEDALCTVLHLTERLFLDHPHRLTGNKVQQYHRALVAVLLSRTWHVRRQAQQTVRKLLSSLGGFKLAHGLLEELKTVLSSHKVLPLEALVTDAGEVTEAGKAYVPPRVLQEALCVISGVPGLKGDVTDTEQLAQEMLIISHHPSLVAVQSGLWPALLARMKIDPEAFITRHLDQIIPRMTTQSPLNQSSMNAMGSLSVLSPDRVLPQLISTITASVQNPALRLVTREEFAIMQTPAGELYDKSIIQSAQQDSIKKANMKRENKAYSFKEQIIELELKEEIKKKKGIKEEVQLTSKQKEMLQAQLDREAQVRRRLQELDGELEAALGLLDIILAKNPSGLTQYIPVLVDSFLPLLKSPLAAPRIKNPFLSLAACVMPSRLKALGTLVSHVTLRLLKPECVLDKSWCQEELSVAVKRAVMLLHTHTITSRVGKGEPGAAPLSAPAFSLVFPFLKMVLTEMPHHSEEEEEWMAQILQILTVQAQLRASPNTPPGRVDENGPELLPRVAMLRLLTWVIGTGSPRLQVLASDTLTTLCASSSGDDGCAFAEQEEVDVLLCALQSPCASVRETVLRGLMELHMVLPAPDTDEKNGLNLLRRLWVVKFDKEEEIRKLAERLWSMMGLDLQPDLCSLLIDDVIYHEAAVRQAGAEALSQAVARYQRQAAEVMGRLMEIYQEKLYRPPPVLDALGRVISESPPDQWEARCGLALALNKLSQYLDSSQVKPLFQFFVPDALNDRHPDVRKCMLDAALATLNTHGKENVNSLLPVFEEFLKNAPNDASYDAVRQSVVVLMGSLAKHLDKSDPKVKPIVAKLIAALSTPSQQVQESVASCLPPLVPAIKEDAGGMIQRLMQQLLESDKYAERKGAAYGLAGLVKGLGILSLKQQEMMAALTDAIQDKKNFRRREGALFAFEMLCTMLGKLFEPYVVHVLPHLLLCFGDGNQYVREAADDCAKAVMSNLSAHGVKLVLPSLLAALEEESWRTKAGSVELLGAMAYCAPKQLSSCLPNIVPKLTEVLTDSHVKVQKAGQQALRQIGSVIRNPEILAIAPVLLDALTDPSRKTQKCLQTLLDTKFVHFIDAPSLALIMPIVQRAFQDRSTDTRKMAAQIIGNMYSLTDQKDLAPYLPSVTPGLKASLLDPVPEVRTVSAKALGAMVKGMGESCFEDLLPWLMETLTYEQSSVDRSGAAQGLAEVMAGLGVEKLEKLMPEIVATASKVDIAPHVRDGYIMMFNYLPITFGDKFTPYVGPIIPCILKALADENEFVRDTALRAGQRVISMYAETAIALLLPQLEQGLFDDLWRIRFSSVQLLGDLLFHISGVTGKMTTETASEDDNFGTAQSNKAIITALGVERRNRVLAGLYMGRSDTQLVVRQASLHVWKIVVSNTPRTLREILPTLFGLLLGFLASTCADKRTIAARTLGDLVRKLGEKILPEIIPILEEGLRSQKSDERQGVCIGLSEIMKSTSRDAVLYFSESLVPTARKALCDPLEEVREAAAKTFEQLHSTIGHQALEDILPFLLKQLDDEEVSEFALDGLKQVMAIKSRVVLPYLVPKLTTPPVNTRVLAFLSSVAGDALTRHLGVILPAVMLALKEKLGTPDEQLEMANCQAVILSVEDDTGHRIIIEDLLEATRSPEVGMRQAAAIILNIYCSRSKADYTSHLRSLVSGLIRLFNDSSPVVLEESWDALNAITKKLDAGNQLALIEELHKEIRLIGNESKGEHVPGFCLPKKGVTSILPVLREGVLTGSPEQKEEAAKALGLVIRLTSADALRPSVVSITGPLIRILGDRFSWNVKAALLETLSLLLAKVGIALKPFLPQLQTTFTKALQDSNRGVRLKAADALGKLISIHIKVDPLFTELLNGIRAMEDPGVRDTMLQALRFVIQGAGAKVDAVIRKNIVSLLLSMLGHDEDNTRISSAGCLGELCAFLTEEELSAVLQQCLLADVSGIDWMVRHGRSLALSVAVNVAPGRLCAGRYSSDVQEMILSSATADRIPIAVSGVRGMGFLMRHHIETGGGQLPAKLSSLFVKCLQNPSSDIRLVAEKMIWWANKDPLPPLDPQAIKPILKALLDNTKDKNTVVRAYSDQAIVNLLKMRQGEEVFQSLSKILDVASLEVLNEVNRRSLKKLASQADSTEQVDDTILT

Biological target: GST-TRα (UniProt P10827)
Assay: pull-down; GST or GST-fusion protein on glutathione sepharose 4B beads, incubated with in vitro translated 35S-methionine PRIC295 or its fragments, 4°C, 2 hours, gentle shaker; washed, SDS-PAGE, autoradiography; nuclear receptors without and with receptor-specific ligand (10 μM to 100 μM); only the target purified

Substance	binding
ΔPRIC295^1–915 (F1), in vitro translated (from UniProt Q92616 1-915) (domain or fragment)	binds
PRIC295 (PPARα-interacting cofactor 295), full-length, in vitro translated (from UniProt Q92616 1-2671)	binds
ΔPRIC295^840–1815 (F2), in vitro translated (from UniProt Q92616 840-1815) (domain or fragment)	binds

No constants are given. Whether binding was seen depends on the method and setting. In cells and extracts the contact can be indirect. Binding can be weak; no strength is given.
